Reference: the supplement of paper PMC10849652
The other results are listed elsewhere or left out.

Amino acid sequences for entries named in this document (tags omitted). A change or cut given only in a name is not applied to a line headed by its entry.
UniProt Q8TBB5: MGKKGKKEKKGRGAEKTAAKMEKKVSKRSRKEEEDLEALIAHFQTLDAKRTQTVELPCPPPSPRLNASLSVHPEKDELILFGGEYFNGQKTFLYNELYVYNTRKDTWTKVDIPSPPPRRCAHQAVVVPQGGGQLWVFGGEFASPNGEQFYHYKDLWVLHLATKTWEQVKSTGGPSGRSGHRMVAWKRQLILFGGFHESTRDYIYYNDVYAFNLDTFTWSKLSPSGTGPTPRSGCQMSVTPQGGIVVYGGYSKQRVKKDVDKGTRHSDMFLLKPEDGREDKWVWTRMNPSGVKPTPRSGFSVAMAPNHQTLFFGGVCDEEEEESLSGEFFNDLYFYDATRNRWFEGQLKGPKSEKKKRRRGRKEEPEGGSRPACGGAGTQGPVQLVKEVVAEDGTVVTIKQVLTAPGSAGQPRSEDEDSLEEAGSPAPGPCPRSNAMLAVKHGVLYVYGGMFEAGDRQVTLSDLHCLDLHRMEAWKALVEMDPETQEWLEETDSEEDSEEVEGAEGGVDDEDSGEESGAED
UniProt Q8IYS2: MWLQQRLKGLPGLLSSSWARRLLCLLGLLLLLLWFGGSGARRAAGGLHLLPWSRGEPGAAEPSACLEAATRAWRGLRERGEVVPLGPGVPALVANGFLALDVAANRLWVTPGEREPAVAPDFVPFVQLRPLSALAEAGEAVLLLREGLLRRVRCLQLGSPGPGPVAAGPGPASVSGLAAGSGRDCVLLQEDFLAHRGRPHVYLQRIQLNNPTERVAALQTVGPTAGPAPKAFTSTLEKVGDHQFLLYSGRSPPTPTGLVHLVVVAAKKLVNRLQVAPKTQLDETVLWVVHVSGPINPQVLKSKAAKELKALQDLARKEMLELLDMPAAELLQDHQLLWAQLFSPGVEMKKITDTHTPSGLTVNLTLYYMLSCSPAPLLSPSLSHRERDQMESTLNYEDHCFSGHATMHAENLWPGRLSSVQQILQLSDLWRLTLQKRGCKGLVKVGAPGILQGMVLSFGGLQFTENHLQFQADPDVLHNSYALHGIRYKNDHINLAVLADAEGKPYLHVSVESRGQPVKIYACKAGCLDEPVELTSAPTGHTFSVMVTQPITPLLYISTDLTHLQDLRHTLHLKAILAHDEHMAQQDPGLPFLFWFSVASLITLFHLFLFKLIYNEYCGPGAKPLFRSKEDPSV
UniProt Q06136: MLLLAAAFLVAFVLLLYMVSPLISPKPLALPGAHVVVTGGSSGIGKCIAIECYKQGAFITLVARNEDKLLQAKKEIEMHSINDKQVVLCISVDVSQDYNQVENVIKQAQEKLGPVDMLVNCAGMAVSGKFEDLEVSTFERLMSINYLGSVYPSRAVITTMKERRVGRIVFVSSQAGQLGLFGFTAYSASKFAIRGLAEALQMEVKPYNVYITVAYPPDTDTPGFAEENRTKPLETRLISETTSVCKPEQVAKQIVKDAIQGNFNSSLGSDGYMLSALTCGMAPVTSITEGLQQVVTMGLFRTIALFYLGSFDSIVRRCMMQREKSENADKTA
UniProt Q8N371: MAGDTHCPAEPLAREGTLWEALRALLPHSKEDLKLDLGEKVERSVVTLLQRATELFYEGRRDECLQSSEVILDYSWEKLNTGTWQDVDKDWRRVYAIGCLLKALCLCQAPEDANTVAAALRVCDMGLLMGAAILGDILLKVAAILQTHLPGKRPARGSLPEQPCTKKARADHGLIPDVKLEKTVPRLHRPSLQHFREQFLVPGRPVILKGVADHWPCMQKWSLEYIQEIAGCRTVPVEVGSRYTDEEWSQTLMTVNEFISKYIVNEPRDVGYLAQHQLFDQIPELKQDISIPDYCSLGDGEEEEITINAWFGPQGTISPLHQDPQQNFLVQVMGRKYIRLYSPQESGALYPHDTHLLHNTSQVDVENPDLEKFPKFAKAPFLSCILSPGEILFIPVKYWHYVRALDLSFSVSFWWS
UniProt Q9H0B6: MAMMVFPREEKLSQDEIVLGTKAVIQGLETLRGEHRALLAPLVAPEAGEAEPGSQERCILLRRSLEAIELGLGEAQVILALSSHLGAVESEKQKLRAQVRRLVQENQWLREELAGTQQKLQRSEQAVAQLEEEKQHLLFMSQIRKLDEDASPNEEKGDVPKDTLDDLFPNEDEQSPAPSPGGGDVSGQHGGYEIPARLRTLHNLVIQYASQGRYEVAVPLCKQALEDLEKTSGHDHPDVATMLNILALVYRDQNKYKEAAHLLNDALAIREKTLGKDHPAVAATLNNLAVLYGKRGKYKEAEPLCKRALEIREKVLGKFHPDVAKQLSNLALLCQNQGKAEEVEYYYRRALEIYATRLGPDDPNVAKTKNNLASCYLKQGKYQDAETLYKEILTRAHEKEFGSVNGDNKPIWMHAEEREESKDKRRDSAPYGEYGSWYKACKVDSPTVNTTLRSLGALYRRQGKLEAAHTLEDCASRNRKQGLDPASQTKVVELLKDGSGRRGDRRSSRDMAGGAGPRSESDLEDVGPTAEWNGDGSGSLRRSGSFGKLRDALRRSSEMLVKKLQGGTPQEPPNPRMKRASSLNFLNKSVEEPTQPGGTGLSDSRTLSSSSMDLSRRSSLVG
UniProt Q9BQ90: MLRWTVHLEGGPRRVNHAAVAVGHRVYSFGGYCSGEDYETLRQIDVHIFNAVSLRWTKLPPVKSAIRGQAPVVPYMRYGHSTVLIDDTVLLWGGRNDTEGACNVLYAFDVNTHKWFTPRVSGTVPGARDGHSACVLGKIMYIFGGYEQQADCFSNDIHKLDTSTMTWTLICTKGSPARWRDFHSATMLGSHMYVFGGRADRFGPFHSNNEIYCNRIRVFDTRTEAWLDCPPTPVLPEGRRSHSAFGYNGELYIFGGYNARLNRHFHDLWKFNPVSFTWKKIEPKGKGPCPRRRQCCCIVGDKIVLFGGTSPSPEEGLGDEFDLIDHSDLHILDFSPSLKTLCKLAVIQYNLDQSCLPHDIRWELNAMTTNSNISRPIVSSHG
UniProt Q6YP21: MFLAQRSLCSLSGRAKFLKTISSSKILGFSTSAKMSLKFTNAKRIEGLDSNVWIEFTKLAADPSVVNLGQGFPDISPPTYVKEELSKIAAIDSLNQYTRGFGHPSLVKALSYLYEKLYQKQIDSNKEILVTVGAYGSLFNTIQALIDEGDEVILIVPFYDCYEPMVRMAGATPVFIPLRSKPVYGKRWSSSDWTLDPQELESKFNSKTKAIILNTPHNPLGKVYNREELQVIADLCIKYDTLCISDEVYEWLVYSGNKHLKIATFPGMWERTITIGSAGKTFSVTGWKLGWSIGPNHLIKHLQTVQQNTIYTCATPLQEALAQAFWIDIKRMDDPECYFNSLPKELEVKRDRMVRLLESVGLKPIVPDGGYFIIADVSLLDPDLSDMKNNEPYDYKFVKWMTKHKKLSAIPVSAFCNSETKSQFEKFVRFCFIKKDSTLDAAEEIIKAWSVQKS
UniProt Q71RC2, whole entry, looked up: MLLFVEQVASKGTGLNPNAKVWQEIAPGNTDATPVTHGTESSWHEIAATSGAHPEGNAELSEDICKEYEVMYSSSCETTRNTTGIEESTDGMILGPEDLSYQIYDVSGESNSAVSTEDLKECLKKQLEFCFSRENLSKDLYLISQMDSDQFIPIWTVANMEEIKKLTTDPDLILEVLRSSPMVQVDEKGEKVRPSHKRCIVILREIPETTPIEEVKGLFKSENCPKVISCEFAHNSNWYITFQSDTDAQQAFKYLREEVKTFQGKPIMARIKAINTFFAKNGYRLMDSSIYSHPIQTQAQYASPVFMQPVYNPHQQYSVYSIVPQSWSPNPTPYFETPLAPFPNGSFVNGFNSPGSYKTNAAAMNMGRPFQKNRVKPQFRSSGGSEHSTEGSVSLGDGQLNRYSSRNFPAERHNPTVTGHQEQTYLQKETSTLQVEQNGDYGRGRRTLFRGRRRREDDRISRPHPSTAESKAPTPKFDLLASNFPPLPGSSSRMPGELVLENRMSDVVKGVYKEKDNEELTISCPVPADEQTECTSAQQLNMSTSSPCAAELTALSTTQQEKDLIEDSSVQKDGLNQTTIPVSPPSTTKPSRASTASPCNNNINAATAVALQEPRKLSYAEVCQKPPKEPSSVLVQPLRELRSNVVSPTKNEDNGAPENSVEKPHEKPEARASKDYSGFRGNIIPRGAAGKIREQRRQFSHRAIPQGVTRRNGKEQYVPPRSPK
UniProt Q9NS87: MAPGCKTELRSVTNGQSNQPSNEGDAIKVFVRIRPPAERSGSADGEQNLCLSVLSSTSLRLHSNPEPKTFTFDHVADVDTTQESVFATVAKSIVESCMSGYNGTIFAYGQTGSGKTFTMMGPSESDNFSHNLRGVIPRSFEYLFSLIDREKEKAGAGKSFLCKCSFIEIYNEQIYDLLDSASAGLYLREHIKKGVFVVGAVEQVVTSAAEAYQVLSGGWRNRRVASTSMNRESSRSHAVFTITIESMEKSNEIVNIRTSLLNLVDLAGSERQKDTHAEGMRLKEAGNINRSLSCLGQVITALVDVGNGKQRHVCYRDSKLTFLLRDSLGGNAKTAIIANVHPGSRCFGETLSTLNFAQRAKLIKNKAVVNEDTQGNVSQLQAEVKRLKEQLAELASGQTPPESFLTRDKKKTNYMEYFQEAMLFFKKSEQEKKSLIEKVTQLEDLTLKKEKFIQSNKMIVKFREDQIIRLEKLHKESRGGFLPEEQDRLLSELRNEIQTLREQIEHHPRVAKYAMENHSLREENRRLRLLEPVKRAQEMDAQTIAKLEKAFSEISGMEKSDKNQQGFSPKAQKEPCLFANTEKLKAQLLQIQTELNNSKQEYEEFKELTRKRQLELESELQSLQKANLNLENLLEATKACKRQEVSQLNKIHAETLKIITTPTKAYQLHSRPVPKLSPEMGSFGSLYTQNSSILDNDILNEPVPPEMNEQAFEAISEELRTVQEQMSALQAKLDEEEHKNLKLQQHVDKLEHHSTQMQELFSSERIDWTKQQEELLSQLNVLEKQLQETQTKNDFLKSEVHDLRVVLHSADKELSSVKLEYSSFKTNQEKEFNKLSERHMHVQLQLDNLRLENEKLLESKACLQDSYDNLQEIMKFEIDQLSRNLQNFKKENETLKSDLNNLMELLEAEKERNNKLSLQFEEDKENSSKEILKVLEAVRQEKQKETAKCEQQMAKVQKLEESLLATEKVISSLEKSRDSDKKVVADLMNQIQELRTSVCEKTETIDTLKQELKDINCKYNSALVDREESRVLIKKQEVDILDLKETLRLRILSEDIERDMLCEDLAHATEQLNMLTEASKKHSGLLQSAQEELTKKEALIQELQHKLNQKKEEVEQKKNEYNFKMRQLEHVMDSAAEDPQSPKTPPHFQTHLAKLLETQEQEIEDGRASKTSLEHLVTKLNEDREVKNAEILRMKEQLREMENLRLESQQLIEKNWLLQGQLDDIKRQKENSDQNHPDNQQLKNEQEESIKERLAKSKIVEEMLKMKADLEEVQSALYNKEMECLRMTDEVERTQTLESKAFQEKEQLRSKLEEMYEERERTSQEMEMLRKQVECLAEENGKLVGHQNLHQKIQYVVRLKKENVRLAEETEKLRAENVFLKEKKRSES
UniProt P83111: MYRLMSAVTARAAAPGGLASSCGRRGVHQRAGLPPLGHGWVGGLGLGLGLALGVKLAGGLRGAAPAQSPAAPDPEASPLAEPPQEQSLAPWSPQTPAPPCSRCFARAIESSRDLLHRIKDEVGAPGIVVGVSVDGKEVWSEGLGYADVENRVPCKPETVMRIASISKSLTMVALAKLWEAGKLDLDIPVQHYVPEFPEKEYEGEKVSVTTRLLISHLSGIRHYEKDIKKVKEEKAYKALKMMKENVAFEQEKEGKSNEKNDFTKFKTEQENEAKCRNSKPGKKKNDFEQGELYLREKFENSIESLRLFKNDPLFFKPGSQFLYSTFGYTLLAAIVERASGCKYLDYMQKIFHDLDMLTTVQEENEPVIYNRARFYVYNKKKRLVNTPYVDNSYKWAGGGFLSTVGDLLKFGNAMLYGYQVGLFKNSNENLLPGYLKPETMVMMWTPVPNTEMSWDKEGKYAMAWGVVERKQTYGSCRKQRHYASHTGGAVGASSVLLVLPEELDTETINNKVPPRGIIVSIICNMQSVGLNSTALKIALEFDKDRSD
UniProt Q9BQD3: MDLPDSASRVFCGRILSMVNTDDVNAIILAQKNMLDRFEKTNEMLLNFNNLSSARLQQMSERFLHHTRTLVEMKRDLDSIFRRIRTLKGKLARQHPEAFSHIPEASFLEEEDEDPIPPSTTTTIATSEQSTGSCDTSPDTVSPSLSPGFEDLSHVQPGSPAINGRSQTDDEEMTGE
UniProt O60870: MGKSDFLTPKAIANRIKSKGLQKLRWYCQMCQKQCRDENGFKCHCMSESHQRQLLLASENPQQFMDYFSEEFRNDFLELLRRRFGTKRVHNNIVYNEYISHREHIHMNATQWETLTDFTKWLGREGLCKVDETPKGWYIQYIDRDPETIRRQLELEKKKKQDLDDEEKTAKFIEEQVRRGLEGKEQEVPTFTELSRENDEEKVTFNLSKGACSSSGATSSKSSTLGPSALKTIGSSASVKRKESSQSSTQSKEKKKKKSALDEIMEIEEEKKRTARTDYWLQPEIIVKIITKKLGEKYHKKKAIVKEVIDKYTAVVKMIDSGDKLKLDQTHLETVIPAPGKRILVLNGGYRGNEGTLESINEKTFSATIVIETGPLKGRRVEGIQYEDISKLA

compound: CC1=C(C(CC(=O)N1)C2=CC=C(C=C2)C(F)(F)F)C(=O)NC3=C(C=C4C(=C3)C=NN4)F; assay: log2 fold change, soluble protein after heating vs DMSO (PISA); higher = thermal stabilisation; K562 lysate, 10 uM; active = over 0.2 and 3.5 SD of the protein, either way, in both replicates (recomputed)
Outline: (§1)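 Pellets of K562 cells were dounce-homogenised in PBS pH 7.4 with 1 mM MgCl2, and the crude extract was held at 1 mg/mL protein for a 30 min treatment with 10 μM compound. Aliquots were heated for 3 min over 48°C-58°C and pooled before NP-40 was added to 0.5% at 4°C. The supernatant from 21,000xg for 90 min was quantified by TMTpro 16plex LC-MS/MS with channel sums equalised. Values are reported from duplicates as log-two fold change in thermal stability relative to solvent controls.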

Target	log2 fold change
KLHDC4 (UniProt Q8TBB5)	inactive: 0.016
KIF5B (UniProt P33176)	inactive: -0.022
KIAA2013 (UniProt Q8IYS2)	inactive: 0.066
KIF1B isoform 2 (UniProt O60333)	inactive: -0.019
KTI12 (UniProt Q96EK9)	inactive: 0.015
KDSR (UniProt Q06136)	inactive: -0.036
KIF2C (UniProt Q99661)	inactive: -0.005
LANCL1 (UniProt O43813)	inactive: -0.018
KPTN (UniProt Q9Y664)	inactive: 0.014
LARP7 isoform 3 (UniProt Q4G0J3)	inactive: 0.021
KDM8 isoform 3 (UniProt Q8N371)	inactive: 0.021
KEAP1 (UniProt Q14145)	inactive: -0.026
KLC2 (UniProt Q9H0B6)	inactive: -0.045
KPNB1 (UniProt Q14974)	inactive: -0.02
KSR1 (UniProt Q8IVT5)	inactive: -0.011
KPNA2 (UniProt P52292)	inactive: -0.01

Target	log2 fold change
KLHDC3 (UniProt Q9BQ90)	inactive: -0.106
KYAT3 (UniProt Q6YP21)	inactive: -0.001
LARP4 isoform 4 (UniProt Q71RC2)	inactive: -0.011
KIF5A (UniProt Q12840)	inactive: -0.008
KIAA1191 (UniProt Q96A73)	inactive: 0.054
KIF2A isoform 4 (UniProt O00139)	inactive: -0.01
KIAA1324L (UniProt A8MWY0)	inactive: 0.028
KLHL18 (UniProt O94889)	inactive: 0.073
KIF15 (UniProt Q9NS87)	inactive: 0.022
KRR1 (UniProt Q13601)	inactive: 0.041
LACTB (UniProt P83111)	inactive: -0.026
KXD1 (UniProt Q9BQD3)	inactive: -0.156
KMT2D isoform 3 (UniProt O14686)	inactive: -0.004
KYAT1 (UniProt Q16773)	inactive: -0.037
KIN (UniProt O60870)	inactive: -0.058
LAMTOR4 (UniProt Q0VGL1)	inactive: -0.034

compound: CC1=C(C2=C(C=C1)C(=O)C3=CC=CC=C3N2CCCN)C; assay: as above
Outline: as §1

Target	log2 fold change
KLHDC4 (UniProt Q8TBB5)	inactive: 0.144
KIF5B (UniProt P33176)	inactive: -0.005
KIAA2013 (UniProt Q8IYS2)	inactive: 0.005
KIF1B isoform 2 (UniProt O60333)	inactive: -0.014
KTI12 (UniProt Q96EK9)	inactive: -0.029
KDSR (UniProt Q06136)	inactive: 0.01
KIF2C (UniProt Q99661)	inactive: -0.004
LANCL1 (UniProt O43813)	inactive: 0.014
KPTN (UniProt Q9Y664)	inactive: -0.096
LARP7 isoform 3 (UniProt Q4G0J3)	inactive: -0.024
KDM8 isoform 3 (UniProt Q8N371)	inactive: -0.029
KEAP1 (UniProt Q14145)	inactive: -0.049
KLC2 (UniProt Q9H0B6)	inactive: -0.036
KPNB1 (UniProt Q14974)	inactive: -0.014
KSR1 (UniProt Q8IVT5)	inactive: -0.032
KPNA2 (UniProt P52292)	inactive: -0.027

Target	log2 fold change
KLHDC3 (UniProt Q9BQ90)	inactive: 0.028
KYAT3 (UniProt Q6YP21)	inactive: -0.011
LARP4 isoform 4 (UniProt Q71RC2)	inactive: 0.001
KIF5A (UniProt Q12840)	inactive: -0.006
KIAA1191 (UniProt Q96A73)	inactive: -0.059
KIF2A isoform 4 (UniProt O00139)	inactive: -0.002
KIAA1324L (UniProt A8MWY0)	inactive: -0.009
KLHL18 (UniProt O94889)	inactive: -0.034
KIF15 (UniProt Q9NS87)	inactive: -0.027
KRR1 (UniProt Q13601)	inactive: -0.032
LACTB (UniProt P83111)	inactive: -0.008
KXD1 (UniProt Q9BQD3)	inactive: -0.018
KMT2D isoform 3 (UniProt O14686)	inactive: -0.013
KYAT1 (UniProt Q16773)	inactive: -0.024
KIN (UniProt O60870)	inactive: 0.043
LAMTOR4 (UniProt Q0VGL1)	inactive: 0.019

compound: CC1=C(C=C(C=C1)NC(=O)C2=CC(=CC=C2)C(C)(C)C#N)NC3=CC4=C(C=C3)N=CN(C4=O)C; assay: as above
Outline: as §1

Target	log2 fold change
KLHDC4 (UniProt Q8TBB5)	inactive: 0
KIF5B (UniProt P33176)	inactive: 0
KIAA2013 (UniProt Q8IYS2)	inactive: -0.019
KIF1B isoform 2 (UniProt O60333)	inactive: 0.018
KTI12 (UniProt Q96EK9)	inactive: -0.003
KDSR (UniProt Q06136)	inactive: 0.032
KIF2C (UniProt Q99661)	inactive: 0.004
LANCL1 (UniProt O43813)	inactive: 0.055
KPTN (UniProt Q9Y664)	inactive: 0.064
LARP7 isoform 3 (UniProt Q4G0J3)	inactive: 0.006
KDM8 isoform 3 (UniProt Q8N371)	inactive: 0.014
KEAP1 (UniProt Q14145)	inactive: 0.012
KLC2 (UniProt Q9H0B6)	inactive: 0.012
KPNB1 (UniProt Q14974)	inactive: 0.013
KSR1 (UniProt Q8IVT5)	inactive: 0.007
KPNA2 (UniProt P52292)	inactive: -0.032

Target	log2 fold change
KLHDC3 (UniProt Q9BQ90)	inactive: 0.021
KYAT3 (UniProt Q6YP21)	inactive: 0.029
LARP4 isoform 4 (UniProt Q71RC2)	inactive: -0.005
KIF5A (UniProt Q12840)	inactive: -0.008
KIAA1191 (UniProt Q96A73)	inactive: 0.026
KIF2A isoform 4 (UniProt O00139)	inactive: -0.02
KIAA1324L (UniProt A8MWY0)	inactive: 0.004
KLHL18 (UniProt O94889)	inactive: -0.001
KIF15 (UniProt Q9NS87)	inactive: 0.02
KRR1 (UniProt Q13601)	inactive: 0.144
LACTB (UniProt P83111)	inactive: 0.002
KXD1 (UniProt Q9BQD3)	inactive: -0.003
KMT2D isoform 3 (UniProt O14686)	inactive: 0.005
KYAT1 (UniProt Q16773)	inactive: 0.01
KIN (UniProt O60870)	inactive: -0.02
LAMTOR4 (UniProt Q0VGL1)	inactive: 0.03
